The values that follow come from paper PMC12040169 (PLOS Biology, 2025).

The list shows a part of the results.

For the assay, the system named is T1, CTL2-GFP (C. trachomatis L2/434/Bu, GFP-expressing).
T1 construct: L2/434/Bu, GFP-expressing
Also noted: species or system HeLa; Intracellular C. trachomatis growth in HeLa cells, bulk GFP fluorescence relative to DMSO. The settings on record: bulk GFP, single well; 28.5 h, 10 µM; inhibitor.
Consider `Nc1ncn(Cc2ccccc2)c2nc(SCC(=O)O)nc1-2` [CBK267027], for which the “% of control remaining” value was 140.215%.

With `COc1ccccc1/C=N/NC(=O)C(=O)NCc1ccccn1` [CBK262286], the “% of control remaining” value is 103.946%.

Turning to `Cc1cc(C(=O)N2C[C@H]3CC[C@](O)(c4ccc(F)cc4)[C@H]3C2)on1` [CBK284354], the “% of control remaining” value was 111.569%.

Take `COc1cc(C(=O)NCCN2CCCC2)ccc1Nc1cncc(-c2ccc(O)cc2)n1` [CBK122661]: the “% of control remaining” value is given as 105.704%.

`CCc1ccc(CNC(=O)Cn2cnc(-c3ccc(CN4CCC(C)CC4)cc3)c2)cc1` [CBK158710T]: the “% of control remaining” value amounted to 95.1623%.

As to `O=C(Cc1ccccc1)Nc1ccccc1C(=O)NCc1cccnc1` [CBK269228], the “% of control remaining” value is 127.356%.

With `Cc1nc(CCN2CCN(c3ccc4nccn4n3)CC2)cs1` [CBK306932], the “% of control remaining” value is 98.084%.

For `CSc1cccc(NC(=O)NCCN2CCNC2=O)c1` [CBK057191], the “% of control remaining” value is given as 150.442%.

`COc1nccnc1-c1ccccc1Cl` [CBK107000]: the “% of control remaining” value stood at 129.058%.

On to `Cc1ncccc1COC(=O)N1c2ccc(F)cc2CCC1C` (centres unmarked) [CBK200139], for which the “% of control remaining” value is reported as 104.3%.

Turning to `O=C(/C=C/c1cccc([N+](=O)[O-])c1)Nc1ccc(O)cc1C(=O)O` [CBK263615], the “% of control remaining” value amounted to 126.349%.

On to `C=CCNC(=O)c1ccccc1NC(=O)Cc1ccc(Cl)cc1` [CBK270086], for which the “% of control remaining” value is 97.6376%.

As for `CC1=C(CCN2CCCC(CO)C2)C(C)(C)CCC1` (centres unmarked) [CBK020827], the “% of control remaining” value amounted to 105.281%.

Take `COc1ccc(-c2nccnc2N2CCN(C)CC2)cc1` [CBK038012]: the “% of control remaining” value worked out at 95.0456%.

Take `CCC(C)[C@H](NC(=O)N1CCN(C(=O)c2cc3ccccc3[nH]2)CC1)C(=O)O` (some centres unmarked) [CBK286725]: the “% of control remaining” value worked out at 109.303%.

As to `CC(C)Nc1cncc(Sc2ccccc2O)n1` [CBK091438], the “% of control remaining” value was found to be 107.586%.

On to `FC(F)(F)c1ccnc(Sc2nccs2)n1` [CBK093771], for which the “% of control remaining” value was 100%.

For `Cc1cccc(-c2noc([C@@H]3Cc4[nH]cnc4CN3C(=O)CC(C)(C)CC(=O)O)n2)c1` [CBK288961], the “% of control remaining” value is 115.424%.

Regarding `CCOC(=O)c1cnn(C2CCCN(c3ccc(C#N)nc3)C2)c1` (centres unmarked) [CBK306458], the “% of control remaining” value was found to be 121.414%.

With `CC1CCC(C(N)=O)CN1C(=O)c1cncc(Br)c1` (centres unmarked) [CBK305773], the “% of control remaining” value is reported as 178.352%.

For the compound `COC(=O)C1CC(O)CC1C(=O)N1CCCC1` (centres unmarked) [CBK011029], the “% of control remaining” value was 119.281%.

Turning to `O=C(O)CCc1nc2ccccc2s1` [CBK264071], the “% of control remaining” value was determined as 102.638%.

Regarding `CN(C)CCN1CCN(c2nc(-c3occc3C=O)cnc2N)CC1` [CBK063917], the “% of control remaining” value was found to be 118.442%.

With `Cc1nnc(NS(=O)(=O)c2ccc(Br)cc2)s1` [CBK068266], the “% of control remaining” value is 102.221%.

`Cc1cc(C)c(C)c(OCCCNC(=O)Cc2c(C)noc2C)c1` [CBK281506]: the “% of control remaining” value was determined as 123.469%.

For `CC(c1cccs1)N(C)C(=O)NC1CCCc2c1cnn2CCO` (centres unmarked) [CBK306289], the “% of control remaining” value is given as 87.3658%.

As for `COc1cc(CN2CCN(C3CCCCC3)CC2)cc(OC)c1OC` [CBK263407], the “% of control remaining” value turned out to be 105.576%.

Take `CCOC(=O)c1ccc(NC(=O)C(C)Oc2ccccc2C)cc1` (centres unmarked) [CBK268660]: the “% of control remaining” value stood at 148.156%.

Regarding `O=C(CSc1ccccc1)NCc1ccncc1` [CBK058023], the “% of control remaining” value is 148.622%.

Turning to `C[C@H]1CN(C(=O)c2cc(C3CC3)no2)[C@@H](C)CN1Cc1ccco1` [CBK281736], the “% of control remaining” value was found to be 117.517%.

As for `Cc1csc2c(C3CCN(C(=O)c4cccnc4)CC3)nc(C)n12` [CBK285242], the “% of control remaining” value is listed as 135.776%.

Turning to `CCOC(=O)c1sc(Nc2nc(C)cc(OC)n2)nc1C` [CBK264822], the “% of control remaining” value came out at 87.4425%.

Regarding `CN1CCN(CCC(=O)N/N=C/c2cccc(Br)c2)CC1` [CBK261496], the “% of control remaining” value is on record as 99.9569%.

Take `Cc1[nH]c2ccccc2c1/C=N/c1ccc(S(N)(=O)=O)cc1` [CBK261352]: the “% of control remaining” value came to 36.0942%.

Consider `CCCc1nc(NC(c2cccc(C)n2)C2CC2)c2cnn(C)c2n1` (centres unmarked) [CBK306795], for which the “% of control remaining” value stood at 132.459%.

As to `Cc1cccc(-c2csc3c(=O)[nH]c(N4CCC(C(=O)NCCN5CCOCC5)CC4)nc23)c1` [CBK215640], the “% of control remaining” value is on record as 110.061%.

Regarding `Cc1cccc2c1[nH]c1nc(N/N=C\c3ccc(-c4cccc([N+](=O)[O-])c4)o3)nnc12` [CBK262373], the “% of control remaining” value is reported as 114.815%.

For `Cc1nc2ncnn2c(C)c1CCC(=O)OCc1ccc(C#N)cc1` [CBK305838], the “% of control remaining” value turned out to be 101.225%.

Regarding `O=[N+]([O-])c1cc(S(=O)(=O)N2CCCCCC2)ccc1NCc1ccccc1` [CBK262804], the “% of control remaining” value is listed as 124.5%.

Consider `O=C(c1cccs1)N1CCC(n2c(=O)oc3ccccc32)CC1` [CBK284347], for which the “% of control remaining” value amounted to 128.689%.

With `O=C1CN(C(=O)Nc2ccc3c(c2)OCCO3)CCN1` [CBK155860], the “% of control remaining” value was 86.7652%.

With `Cn1ccnc1CNc1nc(C(C)(C)C)nc2c1cnn2C` [CBK306894], the “% of control remaining” value is on record as 139.205%.

As for `Cc1cccc(CC(=O)N2CCC(c3ncc(C(=O)Nc4ccc(F)cc4)c(C)n3)CC2)c1` [CBK285885], the “% of control remaining” value came to 103.684%.

On to `CC(=O)Nc1ccc(C(=O)N(Cc2ccccn2)CC2CCCO2)cn1` (centres unmarked) [CBK306784], for which the “% of control remaining” value worked out at 105.844%.

Regarding `Cn1ccc(C(=O)N2CCC[C@H](C(=O)c3ccc(F)cc3)C2)n1` [CBK284333], the “% of control remaining” value turned out to be 91.5936%.

For the compound `O=C(CCSc1nc(-c2ccco2)cc(C(F)(F)F)n1)Nc1ccc2c(c1)OCO2` [CBK267627], the “% of control remaining” value is 98.6473%.

Turning to `Cc1ccc(-c2nc3ncccc3o2)cc1NC(=O)c1cccnc1` [CBK268774], the “% of control remaining” value amounted to 172.064%.

Take `O=C(Cn1c(-c2cccs2)cc2cccnc21)N1CCCCC1` [CBK282619]: the “% of control remaining” value was 100.056%.

For the compound `COc1ccc(C)cc1S(=O)(=O)N1CCc2c(CN3CCOCC3)cccc21` [CBK113630T], the “% of control remaining” value worked out at 134.125%.

Take `CC(C)(C)C(=O)CSc1nnc(Cn2cnc(Cl)c2Cl)o1` [CBK011055]: the “% of control remaining” value is given as 145.779%.

In the case of `CN(C)CC(C)(C)CNC(=O)c1cc(C(=O)c2ccc(Cl)cc2Cl)c[nH]1` [CBK107416], the “% of control remaining” value was found to be 91.5977%.

Take `COc1ccc([C@@]23CCC(NC(=O)Nc4ccc5c(c4)Cc4ccccc4-5)C[C@@H]2N(C)CC3)cc1OC` (some centres unmarked) [CBK047550T]: the “% of control remaining” value is reported as 115.672%.

As for `O=C(NC1CCN(CC2(c3ccccc3)CC2)CC1)C1CCOCC1` [CBK285352], the “% of control remaining” value came to 118.719%.

In the case of `N#Cc1ccc(-n2ncc(-c3cccc(C(F)(F)F)c3)n2)cc1` [CBK112675], the “% of control remaining” value was determined as 86.0942%.

Take `O=C(c1cccnc1NCc1ccc2c(c1)OCO2)N1CCNCC1` [CBK156112T]: the “% of control remaining” value came out at 127.916%.

On to `Cc1cccc(-c2cc(C(=O)Nc3sc4c(c3C#N)CCCCCC4)c3ccccc3n2)c1` [CBK262632], for which the “% of control remaining” value was 104.073%.

Regarding `COc1ccc(CCNc2nc3c(c(=O)n(C)c(=O)n3C)n2Cc2ccccc2Br)cc1OC` [CBK267495], the “% of control remaining” value was 123.975%.

With `CCCCC(O)C[N+]1(C)CCC(c2ccccc2)CC1` (centres unmarked) [CBK006696I], the “% of control remaining” value was 137.306%.

Take `CCCn1c(SCC(=O)c2ccc(CCNC(C)=O)cc2)n[nH]c1=O` [CBK296965]: the “% of control remaining” value worked out at 130.12%.

For the compound `Cc1cc(C)nc(N2CCC(CC(=O)NC(C)CCN3CCCCCC3)CC2)n1` (centres unmarked) [CBK285993], the “% of control remaining” value was determined as 132.489%.

Consider `COc1ccc(-c2cnc(NCC3CC3)c(C(=O)NCc3ccccc3SC)c2)cc1` [CBK076437], for which the “% of control remaining” value was 142.242%.

Turning to `OCCN(Cc1ccncc1)CC1(c2ccc(Cl)cc2)CC1` [CBK282782], the “% of control remaining” value is given as 94.8399%.

Take `O=C(O)c1cccc2c1C(=O)N(Cc1cccnc1)C2` [CBK291193]: the “% of control remaining” value was determined as 87.0019%.

As to `Cc1cc(C)c2c(N)c(C(=O)C(C)(C)C)sc2n1` [CBK115341], the “% of control remaining” value was found to be 92.2771%.

`COc1cc(C(=O)N2CCC3(CC2)CC(=O)c2cc(C)ccc2O3)cc(OC)c1C` [CBK167805]: the “% of control remaining” value is 99.7942%.

`O=C(O)CNS(=O)(=O)c1cccc2cccnc12` [CBK034462]: the “% of control remaining” value was found to be 131.709%.

Consider `COc1ccc(CCNS(=O)(=O)N(C)C)cc1` [CBK264348], for which the “% of control remaining” value was found to be 100%.

On to `CCOC(=O)C1(C2CCCCC2)CCN(C(=O)c2cscn2)CC1` [CBK137101], for which the “% of control remaining” value is reported as 108.3%.

Regarding `COc1cc(S(=O)(=O)NCc2ccncc2)c(C)cc1C` [CBK269988], the “% of control remaining” value worked out at 101.812%.

`Cc1ccc(-c2ccccc2CC2(C(=O)O)CCN(Cc3ccccc3F)CC2)c(C)c1` [CBK286418]: the “% of control remaining” value was 78.4167%.

Turning to `COc1ccc(-c2nc3c(n2O)CCc2c-3no[n+]2[O-])cc1OC` [CBK262350], the “% of control remaining” value turned out to be 140.493%.

For `Cn1c(=O)c2c(nc(CN3CCOCC3)n2CC(=O)c2ccccc2)n(C)c1=O` [CBK269195], the “% of control remaining” value is 150.158%.

With `O=C(Cn1nnc2ccccc2c1=O)NC1CCN2CCCCC12` (centres unmarked) [CBK305589], the “% of control remaining” value is on record as 99.7013%.

Take `CC(C)[C@@H](CO)Nc1cncc(-c2cccc(Cl)c2)n1` [CBK037261]: the “% of control remaining” value is 118.912%.

In the case of `NC(=O)C1CCN(CC(=O)Nc2ccc([N+](=O)[O-])cc2C(=O)c2ccccc2)CC1` [CBK265782], the “% of control remaining” value is 224.745%.

`COc1ccc(C2CCN(C(=O)C3CCCO3)CC2)cc1` (centres unmarked) [CBK285473]: the “% of control remaining” value worked out at 102.731%.

On to `Cn1c(=O)c2c(nc(NCc3ccccc3)n2C)n(C)c1=O` [CBK139872], for which the “% of control remaining” value turned out to be 75.3221%.

Turning to `O=C(O)C1CCCCC1C(=O)NCCCN1CCOCC1` (centres unmarked) [CBK286903], the “% of control remaining” value is on record as 131.582%.

With `Cn1ncc2c(NCCN3CCOC3=O)nc(C(C)(C)C)nc21` [CBK307511], the “% of control remaining” value was 166.125%.

On to `CCCc1n[nH]c(=S)n1CC(=O)NCc1ccc(Oc2cc(C)ccc2C)nc1` [CBK297742], for which the “% of control remaining” value is 156.135%.
